# Data taken from the supplement of paper PMC12578635.
# The list shows a part of the results. No stated cut-off is given here; in the data, active = 150% or more and inactive = the rest. Single values are uncertain, as repeats are few or missing.
# Test system: Staphylococcus aureus JE2-lux inside RAW 264.7 macrophages
# Assay: intracellular bacterial bioluminescence relative to DMSO vehicle; higher = higher intracellular bacterial metabolic activity
# Conditions: 10 µM; treatment time 4 h; gentamicin 50 µg/ml
# Description: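 RAW 264.7 macrophages infected with bioluminescent MRSA JE2-lux (MOI 100) were dispensed into 384-well plates with 10 µM compound in the presence of 50 µg/ml gentamicin. After 4 h at 37 °C, bacterial bioluminescence (a proxy for intracellular bacterial metabolic activity) and host cell viability (CellTiter-Fluor) were read and normalised to 0.1% DMSO vehicle controls. Single-pass screen of the UNC CICBDD kinase-targeted library (>4,700 compounds).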
row,SMILES,intracellular bacterial bioluminescence
1,O=C(NCCc1ccc(Cl)cc1)C(=O)Nc1ccon1,inactive: 123%
2,Cc1c(CCC(=O)O)c(=O)n2c([nH]c3ccccc32)c1C#N,inactive: 98.2%
3,Cc1ccc(NC(=O)CSC2CC(=O)N(c3ccc(C)cc3)C2=O)cc1 (stereo not given),inactive: 115%
4,COCCn1c2ccccc2n2c(=O)n(Cc3cscn3)nc12,inactive: 113%
5,COc1cccc(OCC(=O)N2CCC3(CC2)CC(=O)c2ccccc2O3)c1,inactive: 59%
6,Cc1ccc(C)c(S(=O)(=O)c2cnc(SCC(=O)Nc3ccc(F)cc3F)[nH]c2=O)c1,inactive: 107%
7,CN(C(=O)c1cccc(NC(=O)C2OCOc3ccccc32)c1)C1CCCCC1 (stereo not given),inactive: 86.4%
8,O=C(c1cccnc1)N1C(=O)c2cccc3cccc1c23,inactive: 105%
9,O=C(Cn1c(=O)n(CCC(=O)NC2CCCC2)c(=O)c2ccccc21)NCCC1=CCCCC1,inactive: 113%
10,O=C(Nc1ccc(F)c(F)c1)c1ccc2nc[nH]c2c1,inactive: 113%
11,O=C(COc1ccc(Cl)cc1)NCCSc1ncc(-c2ccc(F)cc2)[nH]1,inactive: 98.9%
12,O=C(CSc1nnc2ccc(-c3cccnc3)nn12)NCc1ccco1,inactive: 105%
13,CN(C)Cc1c(O)ccc2c1O/C(=C\c1ccccc1)C2=O,inactive: 108%
14,CC1CCc2cc(F)ccc2N1C(=O)c1sc2nc3cc4c(cc3cc2c1N)OCO4 (stereo not given),inactive: 76.7%
15,Cc1cc(NCCCn2ccnc2)n2c(nc3ccccc32)c1C#N,inactive: 110%
16,COC(=O)Cn1/c(=N/C(=O)COc2ccc(Cl)cc2)sc2cc(NC(C)=O)ccc21,inactive: 111%
17,CCN(CC)S(=O)(=O)c1ccc(C(=O)Oc2cc(C)[nH]c(=O)c2[N+](=O)[O-])cc1,inactive: 117%
18,Fc1ccccc1Nc1nc(=S)[nH]c2ccccc12,inactive: 87.7%
19,COc1cccc(C(=O)NCC(=O)N/N=C/c2ccc(Cl)cc2)c1,inactive: 91.4%
20,CCCCc1ccc(NC(=O)/C=C2\SC(=O)NC2=O)cc1,inactive: 91.3%
21,CCOC(=O)c1c(SC(CC)C(=O)OC)nc(=O)[nH]c1C (stereo not given),inactive: 110%
22,CCOC(=O)N1CCN(C(=O)Cn2c(=O)n(-c3ccccc3)c(=O)c3oc4ccccc4c32)CC1,inactive: 113%
23,N#CC1=C(SCC(=O)N(c2ccccc2)c2ccccc2)NC2=C(C(=O)CCC2)C1c1ccco1 (stereo not given),inactive: 97.6%

row,SMILES,intracellular bacterial bioluminescence
1,C=CCOc1ccc(C2NC(=O)c3c(sc4c3CCCC4)N2)cc1OC (stereo not given),inactive: 78.6%
2,O=C(Cc1cc(=O)[nH]c(=O)[nH]1)NCCC(c1ccccc1)c1ccccc1,inactive: 126%
3,Cc1nc(Cl)c2c(C)c(C)n(-c3ccccc3)c2n1,inactive: 109%
4,CC(C)c1ccc2nc(SCC(=O)NCCc3c[nH]c4ccccc34)c(C#N)cc2c1,inactive: 114%
5,COc1ccc(-c2ccc(=O)n(C[C@H](C)NC(=O)c3cnn4cccnc34)n2)cc1,inactive: 111%
6,Cc1nc2cc(NC(=O)c3ccc(S(=O)(=O)N4CCC(C)CC4)cc3)ccc2s1,inactive: 108%
7,Fc1ccc2ncc3c(-c4ccccc4)n[nH]c3c2c1,inactive: 95.1%
8,CCc1ccc(NC(=O)CSc2nc(-c3ccc(C(C)C)cc3)no2)cc1,inactive: 66.2%
9,Cc1c(NS(=O)(=O)c2ccc(Cl)cc2)c(-n2cnnc2)nn1C,inactive: 97.1%
10,COc1ccccc1NC(=O)CSc1nnc2cc(C)c3ccccc3n12,inactive: 83.8%
11,N#Cc1cc2cc3c(cc2nc1NCCNS(=O)(=O)c1ccccc1)OCO3,inactive: 91.3%
12,COc1ccc(Cl)cc1NC(=O)c1cccn(OCc2ccccc2F)c1=O,inactive: 24.7%
13,CNc1nnc(CSc2nc(C)cc(C)n2)s1,inactive: 78.8%
14,O=C(CCn1c(=O)oc2ccccc21)NCCC1=CCCCC1,inactive: 87.2%
15,N#CC1=C(N)Oc2c(oc(CO)cc2=O)C1c1ccc(C(F)(F)F)cc1 (stereo not given),inactive: 114%
16,Cc1cc(C)c2cc(C#N)c(N3CCCN(C(=O)c4ccc(F)cc4F)CC3)nc2c1,inactive: 99.5%
17,COc1ccccc1C(=O)Nc1ncc(S(=O)(=O)c2ccc([N+](=O)[O-])cc2)s1,inactive: 54.1%
18,CCC(=O)Nc1c(-c2ccccc2)c2cc(Br)ccc2[nH]c1=O,inactive: 96.4%
19,Cc1ccc(S(=O)(=O)NC(=N)NCCc2c(C)[nH]c3ccc(C)cc23)cc1,inactive: 116%
20,Cc1ccc(Nc2c(C(=O)NCc3ccco3)cnc3c2c(C)nn3C)cc1,inactive: 49.5%
21,C=CCOc1ccc(C2CC(=O)Nc3c2cnn3-c2nc3ccccc3s2)cc1OCC (stereo not given),inactive: 65.9%
22,Cc1nc2c(c(=O)n1CC(=O)Nc1ccc(F)cc1)CCN(Cc1ccccc1)C2,inactive: 29.1%
23,O=C(Nc1sc2c(c1C(=O)NCC1CCCO1)CCCC2)c1cc(-c2cccs2)on1 (stereo not given),inactive: 106%

# A different layout for two compounds above:
row	SMILES	intracellular bacterial bioluminescence
21	C=CCOc1ccc(C2CC(=O)Nc3c2cnn3-c2nc3ccccc3s2)cc1OCC (stereo not given)	inactive: 65.9%
22	Cc1nc2c(c(=O)n1CC(=O)Nc1ccc(F)cc1)CCN(Cc1ccccc1)C2	inactive: 29.1%

# The list continues:

row,SMILES,intracellular bacterial bioluminescence
1,O=C1Nc2ccccc2/C1=C1/SC(=S)N(c2ccccc2F)C1=O,inactive: 102%
2,COc1ccc(C(=O)Nc2nc3ccc(S(=O)(=O)N4CCCC4)cc3s2)c(OC)c1,inactive: 91.4%
3,Cn1c(=O)c2c(nc(CN3CCOCC3)n2CC(=O)C(C)(C)C)n(C)c1=O,inactive: 96.3%
4,COc1ccc(C(NC(=O)c2cc(-c3ccccn3)n[nH]2)c2ccncc2)cc1 (stereo not given),inactive: 111%
5,CC(C(=O)c1ccc(Cl)cc1)C1(O)C(=O)Nc2ccccc21 (stereo not given),inactive: 80.1%
6,O=C(CSc1ncnc2ccccc12)NC1CCCCC1,inactive: 80.7%
7,Cc1cc(SCC(=O)NC2CCCCC2)nc(=O)[nH]1,active: 151%
8,O=C(Cn1nc(-c2ccoc2)oc1=O)NC1CCCCC1,inactive: 107%
9,COC(=O)N1CCc2c(sc(NC(=O)c3cccc(N4C(=O)CCC4=O)c3)c2C(N)=O)C1,inactive: 126%
10,COc1ccc(/C=C/C(=O)Nc2ccc(S(=O)(=O)N3CCc4ccccc43)cc2)cc1,inactive: 122%
11,Nc1ccc(-c2ccc(N)c([N+](=O)[O-])c2)cc1[N+](=O)[O-],inactive: 79.5%
12,COc1ccc(-n2nnc3c(N4CCN(C(=O)C(=O)c5c[nH]c6ccccc56)CC4)ncnc32)cc1,inactive: 36.4%
13,COc1ccccc1NC(=O)Nc1nc(-c2cccnc2)nc2ccccc12,inactive: 119%
14,Cc1nc(-n2nc(C)c(Cc3ccccc3)c2O)sc1C(=O)NC(C)C,inactive: 110%
15,COC(=O)c1c(-c2cccc(F)c2)noc1NCc1ccc(F)cc1,inactive: 81.1%
16,COc1cccc(-n2nnc3c(N4CCN(C(=O)COc5ccc(Cl)cc5)CC4)ncnc32)c1,inactive: 60.7%
17,CC(C)c1ccc(C2C(C#N)=C(SCC(N)=O)NC3=C2C(=O)CCC3)cc1 (stereo not given),inactive: 84.6%
18,Cc1n[nH]c2c1C(c1ccc(-c3cccc([N+](=O)[O-])c3)o1)C(C#N)=C(N)O2 (stereo not given),inactive: 106%
19,Cc1ccc(OCC(=O)N/N=C2/C(=O)Nc3c(Br)cc(Br)cc32)cc1,inactive: 129%
20,COc1ccc(-c2nnc(-c3ccccc3)o2)cc1S(=O)(=O)N1CCc2ccccc2C1,inactive: 77.5%
21,Cc1cccc(Cl)c1NC(=O)CCc1nc(CSc2nc3ccccc3o2)no1,inactive: 76.3%
22,Cc1cc2c(=O)n(CC(=O)Nc3ccc(F)c(Cl)c3)cnc2s1,inactive: 18.2%
23,Cc1cccc(NC(=O)Cn2c(=O)c3cnc(-c4ccccc4)nc3n(C)c2=O)n1,inactive: 91.2%

row,SMILES,intracellular bacterial bioluminescence
1,C#CCn1/c(=N/C(=O)c2ccc(Cl)s2)sc2cc(NC(C)=O)ccc21,inactive: 60.3%
2,O=C(CSc1nc2c(oc3ccccc32)c(=O)n1Cc1cccs1)NCc1ccc(F)cc1,inactive: 115%
3,O=C(NCC1COC2(CCCCC2)O1)C(=O)Nc1ccccc1[N+](=O)[O-] (stereo not given),inactive: 95.6%
4,Clc1ccc2nc(N3CCc4ccccc4C3)sc2c1,inactive: 111%
5,O=C(CSc1nc2ccc(Br)cc2c2nc3ccccc3n12)Nc1nccs1,inactive: 109%
6,COc1cc(OC)c(OC)cc1/C=N\NC(=O)CCC1C(=O)NN=C1C (stereo not given),inactive: 110%
7,Cc1ccc(NC(=O)CSc2nc3cc4c(cc3cc2C#N)OCO4)c(C)c1,inactive: 78.4%
8,Cc1[nH]c2ccccc2c1C(=O)CSc1ncnc2sc3c(c12)CCC3,inactive: 116%
9,CCOC(=O)c1ccccc1NC(=O)CSc1ncnc2c1cnn2-c1ccc(F)cc1,inactive: 118%
10,O=C(Cn1cccc1-c1nc(-c2ccc(Cl)cc2)cs1)N1CCc2ccccc21,inactive: 111%
11,C=CCc1cccc2cc(C(=O)NNC(=O)c3ccc(C)cc3)c(=O)oc12,inactive: 118%
12,O=C(Nc1nc2ccc([N+](=O)[O-])cc2s1)c1cccc(NS(=O)(=O)c2ccc(Cl)cc2)c1,inactive: 98.2%
13,O=C(Nc1ccc(F)cc1)/C(O)=C1\C(=O)Nc2ccc([N+](=O)[O-])cc21,inactive: 106%
14,O=C(COc1ccccc1)c1ccc(O)c(O)c1O,inactive: 104%
15,CC(NC(=O)c1ncoc1-c1ccc(F)cc1)C(=O)N1CCCCC1 (stereo not given),inactive: 96.6%
16,COC(=O)C1=C(C)N(Cc2ccccc2)C(=O)NC1c1ccccc1F (stereo not given),inactive: 97.4%
17,Cc1ccc2nc(NC(=O)CSc3nc(=O)n(N4CCN(C)CC4)c4c3CCCC4)sc2c1,inactive: 128%
18,COc1ccc(NC(=O)CNCCO)c(OC)c1,inactive: 105%
19,Cc1cc2c(o1)CCc1sc(N(C)C(=O)c3cc(C(C)(C)C)nn3C)nc1-2,inactive: 115%
20,CCS(=O)(=O)c1ccc(C(=O)/N=c2/sc3c(C)cc(C)cc3n2C)cc1,inactive: 93.4%
21,CCc1ccc(OCC(=O)Nc2noc(-c3ccc(C)cc3)n2)cc1,inactive: 90.9%

# Structural class, the compounds so far containing a tert-butyl group (2)
row,SMILES,intracellular bacterial bioluminescence
3,Cn1c(=O)c2c(nc(CN3CCOCC3)n2CC(=O)C(C)(C)C)n(C)c1=O,inactive: 96.3%
19,Cc1cc2c(o1)CCc1sc(N(C)C(=O)c3cc(C(C)(C)C)nn3C)nc1-2,inactive: 115%
